PubChem BioAssay AID504774, Drosophila RNAi Screening Center – 2011
Screen: 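Fly genes whose loss alters survival after alkylation damage to DNA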 (primary screen). Cell system: Drosophila Kc167 cells. Reagent: long dsRNA against Drosophila genes, about 0.25 µg dsRNA per well. Time to read-out: about 6 days: 3 days knock-down, then 3 days with or without MMS. Treatment: methyl methanesulphonate 0.004% (w/v) for 3 days after knock-down. Read-out: 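ATP-dependent luminescence as a measure of live cells in MMS-exposed wells, quantile normalised within each plate, with replicate values also given as a mean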. Scale: mean viability with MMS and viability with MMS: higher = more surviving cells after MMS.
The screen tested about 23,000 reagents; this is a random part of those that have a named target and a result. 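Values are quantile-normalised luminescence on an arbitrary scale; higher means more cells surviving MMS.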 Further read-outs or replicates are left out here. No sequences are given here.

With Ser6 [DRSC20574], how do the results read?
mean viability with MMS: 3.58e6; viability with MMS, replicate 1: 4.02e6

Which result is listed for CG18547 [DRSC15345]?
mean viability with MMS: 3.33e6; viability with MMS, replicate 1: 3.86e6

With CG15446 [DRSC20518], what was measured?
mean viability with MMS: 3.51e6; viability with MMS, replicate 1: 3.99e6

For dsx-c73A [DRSC09435], what does the deposit list?
mean viability with MMS: 3.49e6; viability with MMS, replicate 1: 3.99e6

With dsx-c73A [DRSC09914], what was measured?
mean viability with MMS: 3.55e6; viability with MMS, replicate 1: 4.01e6

What is on record for dsx-c73A [DRSC10429]?
mean viability with MMS: 3.76e6; viability with MMS, replicate 1: 4.25e6

For CG14431 [DRSC17925], what does the deposit list?
mean viability with MMS: 3.43e6; viability with MMS, replicate 1: 3.97e6

With Mbs [DRSC09414], what was measured?
mean viability with MMS: 3.42e6; viability with MMS, replicate 1: 3.94e6

How did the screen score Mbs [DRSC10525]?
mean viability with MMS: 3.63e6; viability with MMS, replicate 1: 4.02e6

How did the screen score Mbs [DRSC10553]?
mean viability with MMS: 3.55e6; viability with MMS, replicate 1: 3.88e6

For CG13614 [DRSC14617], what does the deposit list?
mean viability with MMS: 3.66e6; viability with MMS, replicate 1: 4.18e6

For Dscam2 [DRSC08869], how do the results read?
mean viability with MMS: 3.56e6; viability with MMS, replicate 1: 4.00e6

What is on record for Dscam2 [DRSC10198]?
mean viability with MMS: 3.50e6; viability with MMS, replicate 1: 4.03e6

What did the screen give for Dscam2 [DRSC11018]?
mean viability with MMS: 3.80e6; viability with MMS, replicate 1: 4.20e6

How did the screen score Dscam2 [DRSC11019]?
mean viability with MMS: 3.62e6; viability with MMS, replicate 1: 3.98e6

With Dscam2 [DRSC22526], how do the results read?
mean viability with MMS: 3.05e6; viability with MMS, replicate 1: 3.74e6

Look-ups from the entries so far.
CG15446 [DRSC20518], viability with MMS, replicate 1 → 3.99e6
For “viability with MMS, replicate 1”, Mbs [DRSC10525] reads 4.02e6
Dscam2 [DRSC10198], mean viability with MMS → 3.50e6

Next entries follow.
Which result is listed for CG31600 [DRSC22541]?
mean viability with MMS: 3.78e6; viability with MMS, replicate 1: 4.18e6

For CG9686 [DRSC18439], how do the results read?
mean viability with MMS: 3.75e6; viability with MMS, replicate 1: 4.17e6

What is on record for Nek2 [DRSC18124]?
mean viability with MMS: 3.32e6; viability with MMS, replicate 1: 4.20e6

How did the screen score nw [DRSC06749]?
mean viability with MMS: 3.72e6; viability with MMS, replicate 1: 4.22e6

How did the screen score nw [DRSC06896]?
mean viability with MMS: 3.47e6; viability with MMS, replicate 1: 3.90e6

With CG15369 [DRSC18041], what does the deposit list?
mean viability with MMS: 3.53e6; viability with MMS, replicate 1: 4.06e6

Which result is listed for Scsalpha2 [DRSC16003]?
mean viability with MMS: 3.66e6; viability with MMS, replicate 1: 4.08e6

With trn [DRSC11407], what was measured?
mean viability with MMS: 3.50e6; viability with MMS, replicate 1: 3.94e6

For CG33306 [DRSC01899], what was measured?
mean viability with MMS: 3.52e6; viability with MMS, replicate 1: 4.14e6

For HHEX [DRSC16186], what was measured?
mean viability with MMS: 3.14e6; viability with MMS, replicate 1: 3.67e6

How did the screen score Art3 [DRSC16065]?
mean viability with MMS: 3.66e6; viability with MMS, replicate 1: 4.16e6

With CG7692 [DRSC10902], how do the results read?
mean viability with MMS: 3.61e6; viability with MMS, replicate 1: 3.92e6

What is on record for cnc [DRSC14676]?
mean viability with MMS: 3.64e6; viability with MMS, replicate 1: 4.13e6

How did the screen score cnc [DRSC15289]?
mean viability with MMS: 3.34e6; viability with MMS, replicate 1: 3.84e6

What did the screen give for cnc [DRSC15600]?
mean viability with MMS: 3.46e6; viability with MMS, replicate 1: 3.90e6

How did the screen score cnc [DRSC15601]?
mean viability with MMS: 3.44e6; viability with MMS, replicate 1: 3.77e6

How did the screen score Ptth [DRSC00356]?
mean viability with MMS: 3.54e6; viability with MMS, replicate 1: 4.03e6

With CG2909 [DRSC18241], what does the deposit list?
mean viability with MMS: 3.46e6; viability with MMS, replicate 1: 3.93e6

How did the screen score Dph5 [DRSC16653]?
mean viability with MMS: 3.43e6; viability with MMS, replicate 1: 3.91e6
